HELM strings list residues between dots; [ac] is acetyl, [am] amide, other brackets name non-standard units.
Columns and labels:
[1] = general procedure: Fmoc solid-phase peptide synthesis; Rink Amide MBHA Resin (sub: 0.7 mmol/g)
[2] = general procedure: Fmoc solid-phase peptide synthesis; Rink Amide MBHA Resin; settings: whole synthesis, scale 1 mmol
[3] = whole synthesis, scale of the general procedure 1 mmol

PEPTIDE1{[AEEA].[Pen].H.T.[7MeTrp].[LysAc].[Pen].[AEF].[2Nal].[Thp].E.N.[3Pal].[Sar].[am]}$PEPTIDE1,PEPTIDE1,2:R3-7:R3|PEPTIDE1,PEPTIDE1,1:R1-11:R3$$$V2.0
final purity (method not given) [1, 3]: 99%

PEPTIDE1{[AEP].[Pen].H.T.[7MeTrp].[LysAc].[Pen].[AEF].[2Nal].[Thp].E.N.[3Pal].[Sar].[am]}$PEPTIDE1,PEPTIDE1,2:R3-7:R3|PEPTIDE1,PEPTIDE1,1:R1-11:R3$$$V2.0
final purity (method not given) [1, 3]: 95%

PEPTIDE1{[Ahx].[Pen].H.T.[7MeTrp].[LysAc].[Pen].[AEF].[2Nal].[Thp].E.N.[3Pal].[Sar].[am]}$PEPTIDE1,PEPTIDE1,2:R3-7:R3|PEPTIDE1,PEPTIDE1,1:R1-11:R3$$$V2.0
final purity (method not given) ([1]; oxidative folding step): 99%

PEPTIDE1{[C18DA].[gGlu].[AEEA].[AEEA].[Pen].H.T.[Int6].Q.[Pen].[Int3].[2Nal].[Int5].E.N.[3Pal].[Sar].[am]}$PEPTIDE1,PEPTIDE1,5:R3-10:R3$$$V2.0
final purity (method not given) [1, 3]: 96%

PEPTIDE1{[PEG4Ac].[Pen].H.T.[7MeTrp].[LysAc].[Pen].[AEF].[2Nal].[Thp].E.N.[3Pal].[Sar].[am]}$PEPTIDE1,PEPTIDE1,2:R3-7:R3|PEPTIDE1,PEPTIDE1,1:R1-11:R3$$$V2.0
final purity (method not given) [1, 3]: 99%

PEPTIDE1{[ac].C.H.T.[7MeTrp].Q.C.[Int3].[2Nal].[Int5].C.N.[3Pal].[Sar].[am]}|CHEM1{[TMT]}$PEPTIDE1,CHEM1,2:R3-1:R1|PEPTIDE1,CHEM1,7:R3-1:R2|PEPTIDE1,CHEM1,11:R3-1:R3$$$V2.0
final purity (method not given) [1, 3]: 97%

PEPTIDE1{[ac].D.H.T.[7MeTrp].Q.[Dab].[AEF].[2Nal].[Thp].E.N.[3Pal].[Sar].[am]}$PEPTIDE1,PEPTIDE1,2:R3-7:R3$$$V2.0
final purity (method not given) [1, 3]: 87%

PEPTIDE1{[ac].[Dap].H.T.[7MeTrp].Q.[Dap].[AEF].[2Nal].[Thp].E.N.[3Pal].[Sar].[am]}|CHEM1{[CO]}$PEPTIDE1,CHEM1,2:R3-1:R1|PEPTIDE1,CHEM1,7:R3-1:R2$$$V2.0
final purity (method not given) [1, 3]: 95%

PEPTIDE1{[ac].[Pcn].H.T.[Int6].Q.[Pen].[Int3].[2Nal].[Int5].E.N.[3Pal].[Sar].[am]}$PEPTIDE1,PEPTIDE1,2:R3-7:R3$$$V2.0
final purity (method not given) [1, 3]: 96%

PEPTIDE1{[ac].[Pen].H.T.[7MeTrp].Q.[Pen].[AEF].[2Nal].[Thp].E.N.[3Pal].[Sar].[am]}$PEPTIDE1,PEPTIDE1,2:R3-7:R3$$$V2.0
crude mass [2]: 2.4 g
final purity (method not given) ([1]; oxidative folding step): 99%

PEPTIDE1{[ac].[Pen].H.T.[7MeTrp].Q.[Pen].[Int3].[2Nal].[Int5].E.N.[3Pal].[Sar].[am]}$PEPTIDE1,PEPTIDE1,2:R3-7:R3$$$V2.0
final purity (method not given) [1, 3]: 98%

PEPTIDE1{[ac].[Pen].H.T.[7MeTrp].[Cit].[Pen].[AEF].[2Nal].[Thp].E.N.[3Pal].[Sar].[am]}$PEPTIDE1,PEPTIDE1,2:R3-7:R3$$$V2.0
crude mass [2]: 2.5 g
final purity (method not given) ([1]; oxidative folding step): 99%

PEPTIDE1{[ac].[Pen].H.T.[7MeTrp].[LysAc].[Pen].[AEF].[2Nal].[Thp].E.N.[3Pal].[Sar].[am]}$PEPTIDE1,PEPTIDE1,2:R3-7:R3$$$V2.0
final purity (method not given) [1, 3]: 95%

PEPTIDE1{[ac].[Pen].H.T.[7MeTrp].[LysAc].[Pen].[Int3].[2Nal].[Thp].E.N.[3Pal].[Sar].[am]}$PEPTIDE1,PEPTIDE1,2:R3-7:R3$$$V2.0
crude mass [2]: 2.2 g
final purity (method not given) ([1]; oxidative folding step): 98%

PEPTIDE1{[ac].[Pen].H.T.[Int6].K.[Pen].[Int3].[2Nal].[Int5].E.N.[3Pal].[Sar].[am]}|PEPTIDE2{[C18DA].[gGlu].[AEEA].[AEEA]}$PEPTIDE1,PEPTIDE1,2:R3-7:R3|PEPTIDE1,PEPTIDE2,6:R3-4:R2$$$V2.0
final purity (method not given) [1, 3]: 97%

PEPTIDE1{[ac].[Pen].H.T.[Int6].K.[Pen].[Int3].[2Nal].[Int5].E.N.[3Pal].[Sar].[am]}|PEPTIDE2{[ac].[gGlu].[AEEA].[AEEA]}$PEPTIDE1,PEPTIDE1,2:R3-7:R3|PEPTIDE1,PEPTIDE2,6:R3-4:R2$$$V2.0
final purity (method not given) [1, 3]: 95%

PEPTIDE1{[ac].[Pen].H.T.[Int6].Q.[Pen].[AEF].[2Nal].[Thp].E.N.[3Pal].[Sar].[am]}$PEPTIDE1,PEPTIDE1,2:R3-7:R3$$$V2.0
final purity (method not given) [1, 3]: 98%

PEPTIDE1{[ac].[Pen].H.T.[Int6].Q.[Pen].[Int3].[2Nal].[Int5].E.N.[3Pal].[Sar].[am]}$PEPTIDE1,PEPTIDE1,2:R3-7:R3$$$V2.0
final purity (method not given) [1, 3]: 94%

PEPTIDE1{[ac].[Pen].H.T.[Int6].[Cit].[Pen].[AEF].[2Nal].[Thp].E.N.[3Pal].[Sar].[am]}$PEPTIDE1,PEPTIDE1,2:R3-7:R3$$$V2.0
final purity (method not given) [1, 3]: 98%

PEPTIDE1{[ac].[Pen].N.T.[7MeTrp].[LysAc].[Pen].[AEF].[2Nal].[Int5].E.N.[3Pal].[Sar].[am]}$PEPTIDE1,PEPTIDE1,2:R3-7:R3$$$V2.0
final purity (method not given) [1, 3]: 97%

PEPTIDE1{[mPEG5Ac].[Pen].H.T.[Int6].Q.[Pen].[Int3].[2Nal].[Int5].E.N.[3Pal].[Sar].[am]}$PEPTIDE1,PEPTIDE1,2:R3-7:R3$$$V2.0
final purity (method not given) [1, 3]: 94%

PEPTIDE1{[mPEG9Ac].[Pen].H.T.[Int6].Q.[Pen].[Int3].[2Nal].[Int5].E.N.[3Pal].[Sar].[am]}$PEPTIDE1,PEPTIDE1,2:R3-7:R3$$$V2.0
final purity (method not given) [1, 3]: 97%

PEPTIDE1{[mPEG12Ac].[Pen].H.T.[Int6].Q.[Pen].[Int3].[2Nal].[Int5].E.N.[3Pal].[Sar].[am]}$PEPTIDE1,PEPTIDE1,2:R3-7:R3$$$V2.0
final purity (method not given) [1, 3]: 92%

— patent EP4729529A1 (Xizang Haisco Pharmaceutical Co., Ltd., priority 2023, dated 2024)
